The list shows a part of the results.
Assay: inhibitors of hepatocyte lipid droplet formation, primary screen, imaging, high-throughput imaging, BODIPY stain (AID 1656);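 also: cells counted across two imaged fields per well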
Settings: AML12 mouse hepatocytes, oleate lipid droplets, measured here: cell count, cytotoxicity flag, at 6.5 µM
In short: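 Material: mouse AML12 hepatocyte cell line, fixed after treatment; Timing: compound with oleate, overnight; Technique: high-content imaging of BODIPY-stained droplets and DAPI nuclei; Probe or stimulus: oleate, 100 µM final; Dosing: compound at 6.5 µM only.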
`CCCOc1ccc(C)cc1CN(CCCl)CCCl` gave a cell count of 726 cells. For `CN1CCC(Nc2ccc(Cl)cc2)CC1`, the cell count was 805 cells. `COc1cc(OC)cc(C(=O)NCC2(N3CCOCC3)CCCCC2)c1` showed a cell count of 694 cells. Molecule `COc1cccc(C(=O)N(c2cc(C)cc(C)c2)C2CCN(C(=O)OC(C)(C)C)CC2)c1` has a cell count of 833 cells. `CCCOc1ccc(C(=O)NCC2(N(C)C)CCCCC2)cc1` showed a cell count of 826 cells. `CC(C)(C)OC(=O)N1CCC(Nc2ccccc2)CC1` gave a cell count of 702 cells. For `CN1CCC(Nc2ccc(F)c(Cl)c2)CC1`, the cell count was 741 cells. `CCOc1ncccc1C(=O)NCC1(N2CCOCC2)CCCCC1` showed a cell count of 782 cells. `CN(C)c1ccc(C(=O)NCC2(N3CCCCC3)CCCCC2)cc1` showed a cell count of 734 cells. Molecule `CCN1CCC(Nc2cccc(F)c2)CC1` has a cell count of 762 cells. `COc1cc(OC)cc(C(=O)NCC2(N3CCCCC3)CCCCC2)c1` showed a cell count of 853 cells. With `CCCN1CCC(Nc2cc(OC)cc(OC)c2)CC1` the cell count was 790 cells. Work on `c1ccc(CN2CCC(Nc3ccccc3)CC2)cc1` yielded a cell count of 763 cells. For `CC(C)(C)OC(=O)N1CCC(N(C(=O)c2ccccc2)c2ccc(Cl)cc2)CC1`, the cell count was 705 cells. `N#Cc1ccc(C(=O)NCC2(N3CCCCC3)CCCCC2)cc1` showed a cell count of 676 cells. `O=C(OC1CN2CCC1CC2)C1c2ccccc2C=Cc2ccccc21` (stereo not drawn) gave a cell count of 754 cells. In the case of `CCOC(=O)N1CCC(Nc2ccc(C)cc2)CC1`, the cell count is reported as 808 cells. `COc1ccc(C(=O)NCC2(N3CCOCC3)CCCCC2)cc1OC` showed a cell count of 720 cells. In the case of `COc1cc(OC)c(C(=O)NCC2(N(C)C)CCCCC2)cc1OC`, the cell count is reported as 821 cells. Molecule `CN(C)c1cccc(C(=O)NCC2(N3CCCCC3)CCCCC2)c1` has a cell count of 728 cells. `COc1ccc(CN(CCCl)CCCl)cc1Cl` gave a cell count of 670 cells. Molecule `CC(C)c1ccc(NC2CCN(C(=O)OC(C)(C)C)CC2)cc1` has a cell count of 676 cells. In the case of `CN1CCN(CCOC(=O)C(O)(c2ccccc2)c2ccccc2)CC1`, the cell count is reported as 680 cells. In the case of `COc1ccc(NC2CCN(C(=O)OC(C)(C)C)CC2)cc1`, the cell count is reported as 722 cells. In the case of `COc1cc(C(=O)NCC2(N3CCCCC3)CCCCC2)ccc1OC(F)F`, the cell count is reported as 743 cells. Molecule `O=C(NCC1(N2CCOCC2)CCCCC1)c1cc(=O)[nH]c2ccccc12` has a cell count of 791 cells. For `O=C(NCC1(N2CCCCC2)CCCCC1)c1cccc(C(F)(F)F)c1`, the cell count was 810 cells. With `O=C(NCC1(N2CCCCC2)CCCCC1)c1cccc([N+](=O)[O-])c1` the cell count was 672 cells. Molecule `CCN1CCC(Nc2ccc(Cl)cc2)CC1` has a cell count of 781 cells. In the case of `O=C(NCC1(N2CCCCC2)CCCCC1)c1ccc(OC(F)F)cc1`, the cell count is reported as 778 cells. Work on `Cc1ccc(OCC(C)C)c(CN(CCCl)CCCl)c1` yielded a cell count of 738 cells. With `CCOC(=O)N1CCC(Nc2cccc(C)c2)CC1` the cell count was 827 cells. `CCOC(=O)N1CCC(Nc2ccc(F)cc2)CC1` gave a cell count of 744 cells. In the case of `O=C(NCC1(N2CCCCC2)CCCCC1)c1ccc(F)cc1`, the cell count is reported as 622 cells. In the case of `CCOc1ccc(C)cc1CN(CCCl)CCCl`, the cell count is reported as 639 cells. With `CCOC(=O)N1CCC(Nc2ccc(OC)cc2)CC1` the cell count was 704 cells. Work on `N#CC1(Nc2ccccc2)CCN(Cc2ccccc2)CC1` yielded a cell count of 684 cells. `O=C(NCC1(N2CCOCC2)CCCCC1)c1cc2ccccc2o1` gave a cell count of 705 cells. With `CSc1ccccc1C(=O)NCC1(N2CCCCC2)CCCCC1` the cell count was 737 cells. In the case of `O=C(NCC1(N2CCCCC2)CCCCC1)c1ccc(=O)[nH]c1`, the cell count is reported as 839 cells. `CC(C)(C)OC(=O)N1CCC(N(C(=O)c2ccccc2)c2ccc(F)cc2)CC1` showed a cell count of 843 cells. `COc1ccc(C(=O)NCC2(N3CCCCC3)CCCCC2)c(OC)c1OC` gave a cell count of 740 cells. `COc1ccc(C(=O)NCC2(N3CCCCC3)CCCCC2)cc1` gave a cell count of 821 cells.

Source: PubChem BioAssay AID1656 (Sanford-Burnham Center for Chemical Genomics, 2009)
